Measurements reported in article PMC7078224.
Results are given in words; binding and its absence hold for the method and conditions named. In cells and extracts the contact can be indirect. Some entries that bind do so weakly or less than the wild type. Where a sequence is shown, tags or fusion partners need not be part of it.

Target: T1, DDK-tagged ERRA (estrogen related receptor, alpha) (UniProt O08580)
T1 sequence: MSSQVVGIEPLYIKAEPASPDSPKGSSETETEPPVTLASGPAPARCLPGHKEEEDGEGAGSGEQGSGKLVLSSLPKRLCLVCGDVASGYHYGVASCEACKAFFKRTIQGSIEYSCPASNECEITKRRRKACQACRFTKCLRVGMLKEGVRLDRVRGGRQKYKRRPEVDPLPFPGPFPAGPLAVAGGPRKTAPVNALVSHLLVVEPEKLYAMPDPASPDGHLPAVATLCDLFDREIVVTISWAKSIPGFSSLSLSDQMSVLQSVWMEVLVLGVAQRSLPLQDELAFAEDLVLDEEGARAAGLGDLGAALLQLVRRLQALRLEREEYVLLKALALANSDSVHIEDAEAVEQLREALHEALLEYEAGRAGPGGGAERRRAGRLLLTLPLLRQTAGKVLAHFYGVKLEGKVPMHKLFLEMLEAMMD
Test: co-IP; a fraction of the FLAG-M2 immunoprecipitate of DDK-tagged ERRA from murine brown preadipocytes blotted with ERRA and FLII antibodies; rabbit IgG as control

binding: binds
B1: flightless I actin binding protein (FLII) (protein, UniProt Q9JJ28 1-1271)
chain: MEATGVLPFVRGVDLSGNDFKGGYFPENVKAMTSLRWLKLNRTGLCYLPEELAALQKLEHLSVSHNHLTTLHGELSSLPSLRAIVARANSLKNSGVPDDIFKLDDLSVLDLSHNQLTECPRELENAKNMLVLNLSHNGIDSIPNQLFINLTDLLYLDLSENRLESLPPQMRRLVHLQTLVLNGNPLLHAQLRQLPAMMALQTLHLRNTQRTQSNLPTSLEGLSNLSDVDLSCNDLTRVPECLYTLPSLRRLNLSSNQIAELSLCIDQWVHLETLNLSRNQLTSLPSAICKLTKLKKLYLNSNKLDFDGLPSGIGKLTSLEEFMAANNNLELIPESLCRCPKLKKLVLNKNRLVTLPEAIHFLTEIQVLDVRENPSLVMPPKPADRTAEWYNIDFSLQNQLRLAGASPATVAAAAAVGSGSKDPLARKMRLRRRKDSAQDVQAKQVLKGMSDVAQEKNKNQEESIDARAPGGKVRRWDQGLEKPRLDYSEFFTEDVGQLPGLTIWQIENFVPVLVEEAFHGKFYEADCYIVLKTFLDDSGSLNWEIYYWIGGEATLDKKACSAIHAVNLRNYLGAECRTVREEMGDESEEFLQVFDNDISYIEGGTASGFYTVEDTHYVTRMYRVYGKKNIKLEPVPLKGSSLDPRFVFLLDQGLDIYVWRGAQATLSNTTKARLFAEKINKNERKGKAEITLLVQGQEPPGFWDVLGGEPSEIKNHVPDDFWPPQPKLYKVGLGLGYLELPQINYKLSVEHKKRPKVELMPGMRLLQSLLDTRCVYILDCWSDVFIWLGRKSPRLVRAAALKLGQELCGMLHRPRHTVVSRSLEGTEAQVFKAKFKNWDDVLTVDYTRNAEAVLQGQGLSGKVKRDTEKTDQMKADLTALFLPRQPPMPLAEAEQLMEEWNEDLDGMEGFVLEGRKFTRLPEEEFGHFYTQDCYVFLCRYWVPVEYEEEEKTEDKEGKASAEAREGEEAAAEAEEKQPEEDFQCIVYFWQGREASNMGWLTFTFSLQKKFESLFPGKLEVVRMTQQQENPKFLSHFKRKFIIHRGKRKVTQGTLQPTLYQIRTNGSALCTRCIQINTDSSLLNSEFCFILKVPFESEDNQGIVYAWVGRASDPDEAKLAEDILNTMFDASYSKQVINEGEEPENFFWVGIGAQKPYDDDAEYMKHTRLFRCSNEKGYFAVTEKCSDFCQDDLADDDIMLLDNGQEVYMWVGTQTSQVEIKLSLKACQVYIQHTRSKEHERPRRLRLVRKGNEQRAFTRCFHAWSTFRQAPA
